Laboratory results published in patent publication US8475800B2 (Centre National de la Recherche Scientifique, priority 2001, dated 2013).
End groups of sequences in plain letters are not given here.

Assay: general procedure: Fmoc solid-phase peptide synthesis
Details: whole synthesis

Substance	purity (crude or final not stated) [%]
SEQ ID NO: 1 in which the serine in position 10 is phosphorylated (RIHMVYSKRSGKPRGYAFIEY; phosphoserine at position 10; listed as Homo sapiens)	90.2
YVSRYFGSAIRHEPKMKIYRG	96.5
